The list shows a part of the results.
Columns and labels:
[1] = compound: C1=CC=C(C=C1)[C@H](COC2=CC3=C(C=C2)NC(=O)N3)NC(=O)C4=CC=CN(C4=O)CC5=CC(=C(C=C5)F)F; assay: log2 fold change, soluble protein after heating vs DMSO (PISA); higher = thermal stabilisation; K562 lysate, 10 uM; active = over 0.2 and 3.5 SD of the protein, either way, in both replicates (recomputed)
How it was run: (§1)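 To prepare the extract, K562 pellets were dounce-homogenised in PBS pH 7.4 with 1 mM MgCl2, giving crude material at 1 mg/mL protein. This was treated with 10 μM compound for 30 min, then heated in aliquots for 3 min over 48°C-58°C before pooling and addition of NP-40 to 0.5% at 4°C. Centrifugation at 21,000xg for 90 min left soluble protein in the supernatant, which TMTpro 16plex LC-MS/MS quantified with equalised channel sums. Results are log-two fold changes in thermal stability compared with solvent controls, from duplicates.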

Chains of the proteins cited; added tags and fusions are not shown. Lines headed by an entry give the natural chain unless they say otherwise; changes in a name come on top.
UniProt Q4L235: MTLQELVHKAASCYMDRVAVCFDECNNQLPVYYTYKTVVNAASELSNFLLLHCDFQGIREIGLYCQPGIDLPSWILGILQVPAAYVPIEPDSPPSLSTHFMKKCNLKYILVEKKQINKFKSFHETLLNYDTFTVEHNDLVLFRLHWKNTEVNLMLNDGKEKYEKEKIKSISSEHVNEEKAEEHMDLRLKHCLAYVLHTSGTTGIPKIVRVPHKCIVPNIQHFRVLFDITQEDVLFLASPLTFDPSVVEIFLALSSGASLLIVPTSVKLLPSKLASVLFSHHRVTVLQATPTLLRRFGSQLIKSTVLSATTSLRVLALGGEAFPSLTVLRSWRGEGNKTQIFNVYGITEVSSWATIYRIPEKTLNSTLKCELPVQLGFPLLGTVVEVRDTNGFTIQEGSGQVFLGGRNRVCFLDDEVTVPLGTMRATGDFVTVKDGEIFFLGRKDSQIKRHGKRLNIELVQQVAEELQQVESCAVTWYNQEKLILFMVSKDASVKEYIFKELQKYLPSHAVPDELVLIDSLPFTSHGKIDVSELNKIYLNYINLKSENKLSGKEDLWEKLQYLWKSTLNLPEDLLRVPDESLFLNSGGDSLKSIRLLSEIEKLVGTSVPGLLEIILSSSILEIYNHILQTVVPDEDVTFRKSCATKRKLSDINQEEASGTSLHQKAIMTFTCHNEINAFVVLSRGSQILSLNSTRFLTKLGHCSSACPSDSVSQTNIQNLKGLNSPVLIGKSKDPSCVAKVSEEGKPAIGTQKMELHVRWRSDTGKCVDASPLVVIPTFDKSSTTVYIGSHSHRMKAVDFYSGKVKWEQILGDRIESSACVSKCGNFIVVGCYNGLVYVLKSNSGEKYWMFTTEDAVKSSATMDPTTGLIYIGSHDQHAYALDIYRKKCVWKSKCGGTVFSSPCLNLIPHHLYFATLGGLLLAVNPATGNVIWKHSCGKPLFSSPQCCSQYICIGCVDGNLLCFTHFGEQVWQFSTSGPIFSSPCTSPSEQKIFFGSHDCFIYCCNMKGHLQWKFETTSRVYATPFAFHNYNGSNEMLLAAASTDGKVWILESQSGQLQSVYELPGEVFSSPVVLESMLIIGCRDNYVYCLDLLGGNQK
UniProt Q8N2K0: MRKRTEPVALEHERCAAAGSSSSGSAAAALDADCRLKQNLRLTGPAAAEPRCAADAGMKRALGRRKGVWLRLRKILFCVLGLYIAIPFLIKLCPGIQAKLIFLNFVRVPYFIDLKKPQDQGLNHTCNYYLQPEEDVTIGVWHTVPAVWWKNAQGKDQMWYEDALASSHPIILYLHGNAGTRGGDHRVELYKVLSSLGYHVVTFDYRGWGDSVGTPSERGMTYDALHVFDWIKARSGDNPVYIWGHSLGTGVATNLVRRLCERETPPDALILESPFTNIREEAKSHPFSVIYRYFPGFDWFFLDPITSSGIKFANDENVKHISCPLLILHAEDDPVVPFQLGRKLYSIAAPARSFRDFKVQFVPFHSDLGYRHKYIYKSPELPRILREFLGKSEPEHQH
UniProt Q8WTS1: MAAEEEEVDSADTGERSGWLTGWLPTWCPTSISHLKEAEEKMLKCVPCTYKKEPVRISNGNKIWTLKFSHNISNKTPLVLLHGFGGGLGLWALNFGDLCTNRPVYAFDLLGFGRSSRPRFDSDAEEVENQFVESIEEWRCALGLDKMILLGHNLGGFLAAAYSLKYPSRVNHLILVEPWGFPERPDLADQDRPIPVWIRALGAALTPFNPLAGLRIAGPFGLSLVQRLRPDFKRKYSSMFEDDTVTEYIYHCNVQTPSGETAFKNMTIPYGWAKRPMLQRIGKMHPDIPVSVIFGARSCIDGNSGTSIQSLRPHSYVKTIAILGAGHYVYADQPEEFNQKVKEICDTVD
UniProt Q9ULW3: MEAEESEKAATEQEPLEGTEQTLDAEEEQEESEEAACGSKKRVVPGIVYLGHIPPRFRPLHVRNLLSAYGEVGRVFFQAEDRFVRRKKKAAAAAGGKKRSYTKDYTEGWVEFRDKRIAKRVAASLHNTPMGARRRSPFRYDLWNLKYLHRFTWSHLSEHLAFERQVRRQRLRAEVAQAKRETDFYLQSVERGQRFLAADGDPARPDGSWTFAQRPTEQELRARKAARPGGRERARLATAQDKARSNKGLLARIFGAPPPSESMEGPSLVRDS
UniProt Q96QU6: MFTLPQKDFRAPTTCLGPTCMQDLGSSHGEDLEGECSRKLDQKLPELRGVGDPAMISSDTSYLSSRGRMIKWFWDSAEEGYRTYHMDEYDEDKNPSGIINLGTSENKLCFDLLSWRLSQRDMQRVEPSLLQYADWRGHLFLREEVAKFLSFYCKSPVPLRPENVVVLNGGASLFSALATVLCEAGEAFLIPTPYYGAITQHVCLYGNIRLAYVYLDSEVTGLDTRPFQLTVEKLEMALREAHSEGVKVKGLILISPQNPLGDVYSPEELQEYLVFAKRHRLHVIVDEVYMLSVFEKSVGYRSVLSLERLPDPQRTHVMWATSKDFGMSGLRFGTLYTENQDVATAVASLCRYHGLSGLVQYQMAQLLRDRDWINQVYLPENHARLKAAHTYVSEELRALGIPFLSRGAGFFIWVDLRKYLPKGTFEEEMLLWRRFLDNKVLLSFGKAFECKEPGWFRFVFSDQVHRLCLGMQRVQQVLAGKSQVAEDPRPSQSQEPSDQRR
UniProt Q9NP58: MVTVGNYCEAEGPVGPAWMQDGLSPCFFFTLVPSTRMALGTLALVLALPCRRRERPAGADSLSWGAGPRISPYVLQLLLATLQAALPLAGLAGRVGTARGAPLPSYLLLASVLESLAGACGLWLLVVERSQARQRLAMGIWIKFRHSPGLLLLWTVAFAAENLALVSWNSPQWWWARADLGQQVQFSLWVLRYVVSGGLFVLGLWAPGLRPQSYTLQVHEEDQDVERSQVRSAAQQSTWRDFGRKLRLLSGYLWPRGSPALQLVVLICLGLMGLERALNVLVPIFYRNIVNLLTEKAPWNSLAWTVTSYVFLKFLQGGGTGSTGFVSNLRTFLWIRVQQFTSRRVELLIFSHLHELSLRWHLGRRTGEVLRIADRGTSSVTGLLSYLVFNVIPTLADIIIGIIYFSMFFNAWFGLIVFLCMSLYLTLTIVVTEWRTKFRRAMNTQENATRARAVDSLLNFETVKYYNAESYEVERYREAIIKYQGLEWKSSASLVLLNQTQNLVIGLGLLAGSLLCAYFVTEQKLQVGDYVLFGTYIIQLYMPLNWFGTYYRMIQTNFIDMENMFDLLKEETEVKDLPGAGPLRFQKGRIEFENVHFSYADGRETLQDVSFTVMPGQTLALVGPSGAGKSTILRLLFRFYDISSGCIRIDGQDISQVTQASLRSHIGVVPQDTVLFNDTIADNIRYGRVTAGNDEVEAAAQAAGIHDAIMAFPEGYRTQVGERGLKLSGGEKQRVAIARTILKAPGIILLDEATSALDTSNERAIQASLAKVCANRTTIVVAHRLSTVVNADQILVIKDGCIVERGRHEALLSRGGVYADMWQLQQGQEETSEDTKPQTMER
UniProt P21399: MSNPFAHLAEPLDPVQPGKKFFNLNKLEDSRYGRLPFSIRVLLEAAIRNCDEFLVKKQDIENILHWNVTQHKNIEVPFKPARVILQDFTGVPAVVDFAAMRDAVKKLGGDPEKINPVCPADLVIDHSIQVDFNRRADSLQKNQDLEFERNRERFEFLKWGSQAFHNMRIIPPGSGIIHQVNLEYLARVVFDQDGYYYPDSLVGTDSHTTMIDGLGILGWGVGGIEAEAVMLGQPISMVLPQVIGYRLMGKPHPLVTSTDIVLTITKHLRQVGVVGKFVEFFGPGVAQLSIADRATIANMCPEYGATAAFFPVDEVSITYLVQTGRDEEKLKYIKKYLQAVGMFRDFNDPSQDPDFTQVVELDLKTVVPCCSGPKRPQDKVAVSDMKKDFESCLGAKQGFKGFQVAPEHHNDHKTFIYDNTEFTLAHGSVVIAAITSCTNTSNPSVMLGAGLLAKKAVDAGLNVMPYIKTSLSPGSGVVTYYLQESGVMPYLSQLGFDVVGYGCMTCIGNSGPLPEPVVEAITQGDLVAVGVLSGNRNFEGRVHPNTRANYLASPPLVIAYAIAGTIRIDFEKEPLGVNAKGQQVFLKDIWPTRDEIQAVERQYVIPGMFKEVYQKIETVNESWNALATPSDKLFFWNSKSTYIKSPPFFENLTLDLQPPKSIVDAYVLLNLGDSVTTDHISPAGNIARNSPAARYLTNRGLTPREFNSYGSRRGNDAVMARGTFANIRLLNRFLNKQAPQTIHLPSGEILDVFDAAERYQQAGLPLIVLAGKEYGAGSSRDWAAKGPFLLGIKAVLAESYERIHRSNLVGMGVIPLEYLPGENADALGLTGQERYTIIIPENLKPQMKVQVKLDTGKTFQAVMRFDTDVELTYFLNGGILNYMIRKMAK
UniProt P16219: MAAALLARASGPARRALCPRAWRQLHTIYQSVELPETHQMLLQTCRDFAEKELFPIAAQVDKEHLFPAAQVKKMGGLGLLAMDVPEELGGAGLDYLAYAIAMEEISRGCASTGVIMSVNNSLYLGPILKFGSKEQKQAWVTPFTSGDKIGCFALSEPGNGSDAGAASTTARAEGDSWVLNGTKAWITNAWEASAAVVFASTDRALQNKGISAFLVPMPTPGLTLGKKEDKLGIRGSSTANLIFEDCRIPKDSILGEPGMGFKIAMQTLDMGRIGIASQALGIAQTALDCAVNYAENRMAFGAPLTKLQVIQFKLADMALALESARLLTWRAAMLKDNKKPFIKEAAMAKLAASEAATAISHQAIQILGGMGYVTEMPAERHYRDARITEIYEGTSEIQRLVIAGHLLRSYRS
UniProt P09110: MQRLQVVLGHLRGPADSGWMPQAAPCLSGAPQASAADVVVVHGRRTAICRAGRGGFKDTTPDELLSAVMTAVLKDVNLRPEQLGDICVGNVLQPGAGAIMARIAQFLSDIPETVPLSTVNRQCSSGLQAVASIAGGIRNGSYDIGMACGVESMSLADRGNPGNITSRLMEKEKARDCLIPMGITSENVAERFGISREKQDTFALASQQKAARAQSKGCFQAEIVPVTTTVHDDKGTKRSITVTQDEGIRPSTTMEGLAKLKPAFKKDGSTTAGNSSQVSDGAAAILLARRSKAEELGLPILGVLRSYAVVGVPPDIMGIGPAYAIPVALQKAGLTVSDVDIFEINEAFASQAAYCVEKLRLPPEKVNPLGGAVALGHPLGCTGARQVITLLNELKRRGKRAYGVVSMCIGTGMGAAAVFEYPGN
UniProt Q9NX38: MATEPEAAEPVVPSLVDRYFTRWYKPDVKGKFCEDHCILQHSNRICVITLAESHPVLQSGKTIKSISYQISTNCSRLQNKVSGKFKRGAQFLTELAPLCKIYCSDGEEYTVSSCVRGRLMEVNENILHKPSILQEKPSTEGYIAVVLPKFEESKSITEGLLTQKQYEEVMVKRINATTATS
UniProt P49588, whole entry, looked up: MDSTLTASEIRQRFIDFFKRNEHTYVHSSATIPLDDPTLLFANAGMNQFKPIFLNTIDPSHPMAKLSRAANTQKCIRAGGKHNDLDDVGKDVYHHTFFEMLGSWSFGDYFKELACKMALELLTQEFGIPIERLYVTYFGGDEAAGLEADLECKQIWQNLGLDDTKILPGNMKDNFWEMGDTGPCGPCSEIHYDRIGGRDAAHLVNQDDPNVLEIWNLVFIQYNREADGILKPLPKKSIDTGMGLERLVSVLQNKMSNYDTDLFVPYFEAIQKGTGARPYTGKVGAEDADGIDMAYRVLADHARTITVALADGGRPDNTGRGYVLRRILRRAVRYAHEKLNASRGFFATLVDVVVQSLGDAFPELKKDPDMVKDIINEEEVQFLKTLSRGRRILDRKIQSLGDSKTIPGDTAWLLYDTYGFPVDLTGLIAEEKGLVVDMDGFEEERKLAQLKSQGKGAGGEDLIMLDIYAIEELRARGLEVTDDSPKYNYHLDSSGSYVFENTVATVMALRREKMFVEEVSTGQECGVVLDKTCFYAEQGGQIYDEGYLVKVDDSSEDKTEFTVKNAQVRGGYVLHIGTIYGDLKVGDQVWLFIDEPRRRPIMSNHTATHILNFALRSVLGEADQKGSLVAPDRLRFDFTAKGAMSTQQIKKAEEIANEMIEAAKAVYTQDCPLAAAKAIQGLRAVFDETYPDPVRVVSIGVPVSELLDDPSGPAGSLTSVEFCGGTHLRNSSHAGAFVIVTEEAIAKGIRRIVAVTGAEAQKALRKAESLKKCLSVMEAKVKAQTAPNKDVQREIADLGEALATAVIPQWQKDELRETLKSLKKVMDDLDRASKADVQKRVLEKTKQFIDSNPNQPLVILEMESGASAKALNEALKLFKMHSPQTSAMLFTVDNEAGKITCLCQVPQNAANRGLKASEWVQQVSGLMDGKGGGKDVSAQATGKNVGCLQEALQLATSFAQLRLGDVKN

[2] = compound: CC1=C(SC2=C1C(=N[C@H](C3=NN=C(N32)C)CC(=O)N)C4=CC=C(C=C4)Cl)C; assay: as above
How it was run: as §1

[3] = compound: CC1=C2C(=CC=C1)N=C(N(C2=O)C3=CC=CC=C3C)CN4C=NC5=C(N=CN=C54)N; assay: as above
How it was run: as §1

[4] = compound: Cc1sc2c(c1C)C(c1ccc(Cl)cc1)=N[C@@H](CC(=O)OC(C)(C)C)c1nnc(C)n1-2; assay: as above
How it was run: as §1

[5] = compound: c1ccc([C@@H]2C[C@H]2NC2CCNCC2)cc1; assay: as above
How it was run: as §1

[6] = compound: C1=CC=C(C=C1)[C@H](COC2=CC3=C(C=C2)NC(=O)N3)NC(=O)C4=CC=CN(C4=O)CC5=CC(=C(C=C5)F)F; assay: log2 fold change, soluble protein after heating vs DMSO (PISA); higher = thermal stabilisation; K562 cells, 10 uM, 30 min; active = over 0.2 and 3.5 SD of the protein, either way, in both replicates (recomputed)
How it was run: (§2)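 K562 cells at 2×10^6 cells/mL were treated with 10 μM compound for 30 min. Aliquots were heated for 3 min across 48°C-58°C, pooled, and extracted in PBS with 0.5% NP-40 at 4°C; soluble protein was the supernatant after 21,000xg for 90 min. Soluble protein was quantified by TMTpro 16plex LC-MS/MS with channel sums equalised, and reported as log2 fold change in thermal stability against DMSO controls, with values from duplicates.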

[7] = compound: CC1=C(SC2=C1C(=N[C@H](C3=NN=C(N32)C)CC(=O)N)C4=CC=C(C=C4)Cl)C; assay: as above
How it was run: as §2

[8] = compound: c1ccc([C@@H]2C[C@H]2NC2CCNCC2)cc1; assay: as above
How it was run: as §2

Measured: log2 fold change

AASDH (UniProt Q4L235)
inactive: [1] 0.05 | [2] -0.059 | [3] -0.046 | [4] 0.006 | [5] -0.017

ZNF316 (UniProt A6NFI3)
inactive: [6] 0.066 | [7] 0.024 | [8] -0.074

ABHD12 isoform 2 (UniProt Q8N2K0)
inactive: [1] 0.008 | [2] 0.042 | [3] 0.003 | [4] 0.031 | [5] 0.042

ACAA2 (UniProt P42765)
inactive: [1] 0.04 | [2] 0.019 | [3] -0.012 | [4] -0.021 | [5] 0.028

ABCB8 (UniProt Q9NUT2)
inactive: [1] 0.075 | [2] -0.024 | [3] 0.004 | [4] 0.022 | [5] 0.003

ABHD5 (UniProt Q8WTS1)
inactive: [1] -0.041 | [2] -0.09 | [3] -0.044 | [4] 0.083 | [5] 0.056

ABHD17A isoform 2 (UniProt Q96GS6)
inactive: [1] -0.053 | [2] -0.02 | [3] 0.011 | [4] -0.025 | [5] -0.069

ABT1 (UniProt Q9ULW3)
inactive: [1] 0.103 | [2] 0.03 | [3] 0.081 | [4] -0.053 | [5] 0.022

AAR2 (UniProt Q9Y312)
inactive: [1] 0.01 | [2] 0.086 | [3] 0.054 | [4] -0.007 | [5] 0.028

ACCS (UniProt Q96QU6)
inactive: [1] -0.043 | [2] 0.059 | [3] 0.171 | [4] -0.06 | [5] -0.089

A0A096LPI6, A0A096LPI6
inactive: [1] -0.012 | [2] 0.037 | [3] -0.008 | [4] -0.019 | [5] 0.014

A0A494C100, A0A494C100
inactive: [1] -0.08 | [2] 0.061 | [3] 0.013 | [4] 0.076 | [5] 0.233

ABHD13 (UniProt Q7L211)
inactive: [1] 0.043 | [2] -0.127 | [3] 0.153 | [4] -0.171 | [5] -0.246

AAK1, A0A096LP25
inactive: [1] -0.033 | [2] -0.075 | [3] -0.036 | [4] -0.043 | [5] -0.067

ABCB6 (UniProt Q9NP58)
inactive: [1] 0.019 | [2] -0.028 | [3] 0.006 | [4] -0.04 | [5] -0.026

ACADM isoform 2 (UniProt P11310)
inactive: [1] -0.071 | [2] -0.035 | [3] 0.043 | [4] 0.017 | [5] 0.013

ACO1 (UniProt P21399)
inactive: [1] -0.003 | [2] -0.006 | [3] 0.015 | [4] 0.012 | [5] 0.027

ABRAXAS2 (UniProt Q15018)
inactive: [1] 0.004 | [2] -0.03 | [3] -0.024 | [4] 0.061 | [5] -0.005

ACADS (UniProt P16219)
inactive: [1] -0.015 | [2] 0.069 | [3] 0.054 | [4] 0.013 | [5] 0.003

Quoted from above (seven entries):
A0A494C100, A0A494C100
inactive: [1] -0.08 | [2] 0.061 | [3] 0.013 | [4] 0.076 | [5] 0.233

ABHD13 (UniProt Q7L211)
inactive: [1] 0.043 | [2] -0.127 | [3] 0.153 | [4] -0.171 | [5] -0.246

AAK1, A0A096LP25
inactive: [1] -0.033 | [2] -0.075 | [3] -0.036 | [4] -0.043 | [5] -0.067

ABCB6 (UniProt Q9NP58)
inactive: [1] 0.019 | [2] -0.028 | [3] 0.006 | [4] -0.04 | [5] -0.026

ACADM isoform 2 (UniProt P11310)
inactive: [1] -0.071 | [2] -0.035 | [3] 0.043 | [4] 0.017 | [5] 0.013

ACO1 (UniProt P21399)
inactive: [1] -0.003 | [2] -0.006 | [3] 0.015 | [4] 0.012 | [5] 0.027

ABRAXAS2 (UniProt Q15018)
inactive: [1] 0.004 | [2] -0.03 | [3] -0.024 | [4] 0.061 | [5] -0.005

Next results

ACAA1 (UniProt P09110)
inactive: [1] -0.004 | [2] 0.007 | [3] -0.005 | [4] 0.046 | [5] -0.003

ABITRAM (UniProt Q9NX38)
inactive: [1] 0.02 | [2] 0.01 | [3] 0.022 | [4] 0.078 | [5] -0.083

AARS (UniProt P49588)
inactive: [1] -0.01 | [2] 0 | [3] -0.008 | [4] 0.022 | [5] 0.008

ACAD9 (UniProt Q9H845)
inactive: [1] 0.054 | [2] -0.019 | [3] 0.069 | [4] 0.006 | [5] -0.011

ABCB7 isoform 2 (UniProt O75027)
inactive: [1] -0.08 | [2] 0.065 | [3] 0.007 | [4] 0.022 | [5] 0.044

ABCF1 (UniProt Q8NE71)
inactive: [1] 0.006 | [2] 0.005 | [3] 0.03 | [4] -0.018 | [5] 0.003

AAMP (UniProt Q13685)
inactive: [1] -0.025 | [2] 0.01 | [3] 0.028 | [4] 0.021 | [5] 0.022
